From patent US20170080048A1
These are yes or no findings as the source states them, for the method shown. Some results given as binding are weak or reduced against the parent protein; the word gives no strength.

Legend:
EGFR (human) [1] = molecular target: EGFR (human) (UniProt P00533); test: co-localization by fluorescence microscopy (figure legend)
EGFR (human) [2] = molecular target: EGFR (human) (UniProt P00533); test: co-localization with EGFR by fluorescence microscopy in H226 cells (similar results to rLZ-8)

B1: recombinant immunomodulatory protein derived from Ganoderma microsporum (protein)
chain: MSDTALIFTLAWNVKQLAFDYTPNWGRGRPSSFIDTVTFPTVLTDKAYTYRVVVSGKDLGVRPSYAVESDGSQKINFLEYNSGYGIADTNTIQVYVIDPDTGNNFIVAQWN
binding (EGFR (human) [1]): binds | binding (EGFR (human) [2]): binds
